According to the supplement of paper PMC7830784:
Several values for one entry are separate records, joined by “and”; a condition that tells them apart may be missing. Equal values may be shown once. Where a name gives a salt, the structure may show the parent alone. The list shows a part of the results. Single values are uncertain here, since repeats match poorly. Starred links: 1 amine or outer side, 2 acyl side, 3 side chain; linkers in the order of their positions; H or OH if unused. Positions of bridges follow the written chain, without caps; N, C: chain ends. Non-standard residues stand in square brackets, D forms with d. Residues, ends and D or L forms follow the SMILES beside them. ξ: configuration not given here. *: point of attachment. X2 = N=C1NCCC([C@H](N[*:1])C(=O)[*:2])N1; ΔAla(Z-3-ureido) = NC(=O)N/C=C(\N)C(=O)O; ξβ3hOrn = NCCCC(N)CC(=O)*; Dap = NC[C@H](N)C(=O)O

test system: Brugia pahangi adult female; assay: motility inhibition on day 3 relative to DMSO vehicle; higher = more active; conditions: 10 µM; 3 days

Structure (SMILES)	motility inhibition on day 3
CCOC(=O)O[C@]1(C(=O)COC(=O)CC)CC[C@H]2[C@@H]3CCC4=CC(=O)C=C[C@]4(C)[C@H]3[C@@H](O)C[C@@]21C [prednicarbate]	28.1%
COc1ccc2c(c1OC)C(=O)O[C@@H]2[C@H]1c2c(cc3c(c2OC)OCO3)CCN1C [noscapine hydrochloride]	17.3%
CC(=O)NCCCS(=O)(=O)O [acamprosate calcium]	1.72%
O=C(O)c1cc(/N=N/c2ccc(O)c(C(=O)O)c2)ccc1O [olsalazine sodium]	53.2%
CC(C)(C)NCC(O)COc1cccc2c1CCC(=O)N2 (stereo not drawn) [carteolol hydrochloride]	14.9%
C=C1c2c(Cl)ccc(O)c2C(=O)C2=C(O)[C@]3(O)C(=O)C(C(N)=O)=C(O)[C@@H](N(C)C)[C@@H]3[C@@H](O)[C@H]12.O=C(O)c1cc(S(=O)(=O)O)ccc1O [meclocycline sulfosalicylate]	7.87%
CN(C)C(=O)C(CCN1CCC(O)(c2ccc(Cl)cc2)CC1)(c1ccccc1)c1ccccc1 [Loperamide hydrochloride]	26.5%
Nc1nc2[nH]cnc2c(=S)[nH]1 [thioguanine]	2.75%
CC(=O)C1C(=O)C=C(C)OC1=O (stereo not drawn) [dehydroacetic acid]	< 0%
O=C1c2c(O)cccc2C([C@@H]2O[C@H](CO)[C@@H](O)[C@H](O)[C@H]2O)c2cc(CO)cc(O)c21 (stereo partly drawn) [aloin]	25.2%
CC(C(=O)O)c1ccc2c(c1)[nH]c1ccc(Cl)cc12 (stereo not drawn) [carprofen]	< 0%
Cc1cccc(C)c1NC(=O)C(C)N (stereo not drawn)	6.52%
CO/N=C(\C(=O)N[C@@H]1C(=O)N2C(C(=O)O)=C(CSc3nnnn3C)CS[C@H]12)c1csc(N)n1 [cefmenoxime hydrochloride]	26.9%
C[C@H]1O[C@@H](O[C@H]2[C@@H](O)C[C@H](O[C@H]3[C@@H](O)C[C@H](O[C@H]4CC[C@@]5(C)[C@H](CC[C@@H]6[C@@H]5C[C@@H](O)[C@]5(C)[C@@H](C7=CC(=O)OC7)CC[C@]65O)C4)O[C@@H]3C)O[C@@H]2C)C[C@H](O)[C@@H]1O [digoxin]	13.8%
O=C(OCC(O)CO)c1ccccc1Nc1ccnc2cc(Cl)ccc12 (stereo not drawn) [glafenine]	< 0%
CC(C(=O)O)c1ccc(-c2ccccc2)c(F)c1 (stereo not drawn) [flurbiprofen]	6.81%
Cc1c(OCC(F)(F)F)ccnc1C[S@@+]([O-])c1nc2ccccc2[nH]1 [dexlansoprazole]	16.5%
Cc1cccc(C)c1OCC(C)N (stereo not drawn) [mexiletine hydrochloride]	19.9%
Cc1cc(=O)[nH]c(=S)[nH]1 [methylthiouracil]	61.6%
CC(=O)[C@H]1CC[C@H]2[C@@H]3C=CC4=CC(=O)CC[C@@]4(C)[C@@H]3CC[C@]12C [dydrogesterone]	< 0%
NC[C@@H]1O[C@H](O[C@H]2[C@@H](O)[C@H](O[C@@H]3[C@@H](O)[C@H](N)C[C@H](N)[C@H]3O[C@H]3O[C@H](CO)[C@@H](O)[C@H](O)[C@H]3N)O[C@@H]2CO)[C@H](N)[C@@H](O)[C@@H]1O [paromomycin sulfate]	2.36%
CC[C@]1(O)C[C@H]2CN(CCc3c([nH]c4ccccc34)[C@@](C(=O)OC)(c3cc4c(cc3OC)N(C=O)[C@H]3[C@@](O)(C(=O)OC)[C@H](OC(C)=O)[C@]5(CC)C=CCN6CC[C@]43[C@@H]65)C2)C1 [vincristine sulfate]	1.32%
COc1ccccc1OCC(O)CO (stereo not drawn) [guaifenesin]	23.3%

Shown with bars between the fields: part of the list above.
Structure (SMILES) | motility inhibition on day 3
O=C1c2c(O)cccc2C([C@@H]2O[C@H](CO)[C@@H](O)[C@H](O)[C@H]2O)c2cc(CO)cc(O)c21 (stereo partly drawn) [aloin] | 25.2%
Cc1cccc(C)c1NC(=O)C(C)N (stereo not drawn) | 6.52%
C[C@H]1O[C@@H](O[C@H]2[C@@H](O)C[C@H](O[C@H]3[C@@H](O)C[C@H](O[C@H]4CC[C@@]5(C)[C@H](CC[C@@H]6[C@@H]5C[C@@H](O)[C@]5(C)[C@@H](C7=CC(=O)OC7)CC[C@]65O)C4)O[C@@H]3C)O[C@@H]2C)C[C@H](O)[C@@H]1O [digoxin] | 13.8%

(listing goes on)

Structure (SMILES)	motility inhibition on day 3
Cc1c(N(C)C)c(=O)n(-c2ccccc2)n1C [aminopyrine]	16.9%
Oc1c(Cl)cc(Cl)c(Cl)c1Cc1c(O)c(Cl)cc(Cl)c1Cl [hexachlorophene]	95.1%
CCOC(=O)C1=C(COCCN)NC(C)=C(C(=O)OC)C1c1ccccc1Cl (stereo not drawn) [amlodipine besylate]	7.58% and 16.3%
CCN(CC)CCNC(=O)c1c(C)[nH]c(/C=C2\C(=O)Nc3ccc(F)cc32)c1C [sunitinib malate]	6.76%
COc1ccc(/C=C/C(=O)Nc2ccccc2C(=O)O)cc1OC [tranilast]	9.41%
C[n+]1c2cc(N)ccc2cc2ccc(N)cc21 [acriflavinium hydrochloride]	92.6%
CCC[C@@H]1C[C@@H](C(=O)N[C@@H]([C@H]2O[C@H](SC)[C@H](O)[C@@H](O)[C@H]2O)[C@H](C)Cl)N(C)C1 [clindamycin hydrochloride]	< 0%
O=C(N[C@H](CO)[C@H](O)c1ccc([N+](=O)[O-])cc1)C(Cl)Cl [chloramphenicol]	1.51%
O=C(O)CCNC(=O)c1ccccc1 [betamipron]	< 0%
Cn1cnc2c1c(=O)[nH]c(=O)n2C [Theobromine]	26.5%
CC1=NN(c2ccccc2)C(=O)C1 [3-methyl-1-phenyl-2-pyrazolin-5-one (mci-186)]	1.86%
CCN(CC)CCNC(=O)c1cc(Cl)c(N)cc1OC [Metoclopramide hydrochloride]	< 0%
CCOc1ccc2ccccc2c1C(=O)N[C@@H]1C(=O)N2[C@@H]1SC(C)(C)[C@@H]2C(=O)O [nafcillin sodium]	1.02%
CC(C)(CO)C(O)C(=O)NCCCO (stereo not drawn) [panthenol (dl)]	3.47%
OCc1cccnc1 [nicotinyl alcohol tartrate]	16%
COc1ccccc1Oc1c(NS(=O)(=O)c2ccc(C(C)(C)C)cc2)nc(-c2ncccn2)nc1OCCO [Bosentan]	48.8%
CN(C)CCC=C1c2ccccc2COc2ccccc21 [doxepin hydrochloride]	5.92%
CN(C)CCC=C1c2ccccc2COc2ccccc21 [Doxepin hydrochloride]	15.7%
CN1CCC[C@@H]1Cc1c[nH]c2ccc(CCS(=O)(=O)c3ccccc3)cc12 [eletriptan hydrobromide]	2.64%
CC(C)[N+](C)(CCOC(=O)C1c2ccccc2Oc2ccccc21)C(C)C [propantheline bromide]	3.84%
CC(C)Nc1cccnc1N1CCN(C(=O)c2cc3cc(NS(C)(=O)=O)ccc3[nH]2)CC1 [Delavirdine mesylate]	12.7%
Cc1onc(-c2ccccc2Cl)c1C(=O)N[C@@H]1C(=O)N2[C@@H]1SC(C)(C)[C@@H]2C(=O)O [cloxacillin sodium]	< 0%
C#Cc1cccc(Nc2ncnc3cc(OCCOC)c(OCCOC)cc23)c1 [Erlotinib]	4.41%

Structure (SMILES)	motility inhibition on day 3
NS(=O)(=O)c1cc2c(cc1Cl)NC(C(Cl)Cl)NS2(=O)=O (stereo not drawn) [trichlormethiazide]	24.3%
CN[C@@H]1[C@H](O)[C@H](NC)[C@H]2O[C@@]3(O)C(=O)C[C@@H](C)O[C@H]3O[C@@H]2[C@H]1O [spectinomycin hydrochloride]	< 0%
CCCCCCOC(=O)NC(=N)c1ccc(NCc2nc3cc(C(=O)N(CCC(=O)OCC)c4ccccn4)ccc3n2C)cc1 [dabigatran etexilate mesylate]	25.7%
COc1ccc(O)cc1 [mequinol]	12.9%
CC(=O)NC(Cc1ccccc1)C(=O)O (stereo not drawn) [afalanine]	22.1%
CCCCCCCCCCCCCCCCCCCCCCO [docosanol]	< 0%
CN[C@@H]1[C@@H](O[C@H]2O[C@H](CO)[C@@H](N)[C@H](O)[C@H]2O)OC2C[C@@H](N)[C@@H](O[C@H]3[C@H](O)[C@@H](O)[C@H](N)C[C@@H]3N)OC2[C@@H]1O (stereo partly drawn) [apramycin sulfate]	1.34%
CC12CCC(CC1=O)C2(C)C (stereo not drawn) [camphor (1r)]	< 0%
C[C@@H]1NC(=O)[C@@H](N)CNC(=O)[C@H](C2CCNC(=N)N2)NC(=O)/C(=C/NC(N)=O)NC(=O)[C@H](CNC(=O)CC(N)CCCN)NC1=O.N=C1NCC[C@H]([C@@H]2NC(=O)/C(=C/NC(N)=O)NC(=O)[C@H](CNC(=O)C[C@@H](N)CCCN)NC(=O)[C@H](CO)NC(=O)[C@@H](N)CNC2=O)N1 [capreomycin sulfate] (H-[Dap]S[Dap](ξβ3hOrn)[ΔAla(Z-3-ureido)][X2]; lactam 1-C)	< 0%
C[C@](N)(Cc1ccc(O)c(O)c1)C(=O)O [L-alpha-Methyl DOPA]	17.3%
Clc1ccc(C(Cn2ccnc2)OCc2ccsc2Cl)c(Cl)c1 (stereo not drawn) [tioconazole]	99.5%
C[C@H]1c2cccc(O)c2C(=O)C2=C(O)[C@]3(O)C(=O)C(C(N)=O)=C(O)[C@@H](N(C)C)[C@@H]3[C@@H](O)[C@@H]21 [doxycycline hydrochloride]	< 0%
O=C1/C(=C/c2cccs2)CCC/C1=C\c1cccs1 [tenylidone]	58.5%
CCOC(=O)COc1ccc2c(=O)cc(-c3ccccc3)oc2c1 [efloxate]	2.99%
O=C(O)C(=O)O.[NH-][C@@H]1CCCC[C@H]1[NH-].[Pt+2] [oxaliplatin]	11.9%
CC(C)C(=O)Oc1ccc(CO)cc1[C@H](CCN(C(C)C)C(C)C)c1ccccc1 [Fesoterodine fumarate]	< 0%
Cc1ccc(NC(=O)c2ccc(CN3CCN(C)CC3)cc2)cc1Nc1nccc(-c2cccnc2)n1 [imatinib]	27%
Cc1cc(C(C)(C)C)c(O)c(C(C)(C)C)c1 [2,6-di-t-butyl-4-methylphenol]	1.62%
C#CCN[C@@H]1CCc2ccccc21 [rasagiline]	25.2%
NC(=O)CCC/N=C(\c1ccc(Cl)cc1)c1cc(F)ccc1O [Progabide]	2.25%
CCOc1nc2cccc(C(=O)OCc3oc(=O)oc3C)c2n1Cc1ccc(-c2ccccc2-c2noc(=O)[nH]2)cc1 [azilsartan kamedoxomil]	< 0%
O=C(O)c1cn(C2CC2)c2cc(N3CCNCC3)c(F)cc2c1=O [ciprofloxacin]	1.97%
